# Measured values taken from PubChem BioAssay AID493014 (National Center for Advancing Translational Sciences (NCATS), 2011).
# The list shows a part of the results. Further columns of the screen follow, without active or inactive calls. Compounds called inactive in the main read-out are mostly missing here. Words in brackets tell the shape of the fitted curve; partial curves, single points and poor fits give uncertain potencies.
# Assay: qHTS Assay to Find Inhibitors of Chronic Active B-Cell Receptor Signaling
# Details: ABC-DLBCL IkBa-CBG/CBR reporter, luminescence ratio (green luciferase fused to IkBa over red control in TMD8 lymphoma cells), 4 h
# How it was run: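 TMD8 human ABC-DLBCL cells with doxycycline-inducible IκBα–green luciferase fusion and unfused red luciferase, in 0.5% FBS medium; compounds up to 46 uM, 4 h at 37C. Green/red luminescence ratio, filter-overlap corrected, fitted to concentration-response curves.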
# [1] = measured here: CBR red luminescence, cell number
# [2] = measured here: IkBa-CBG green luminescence
SMILES,AC50 [1],AC50 [2]
CC(C)CNC(=O)CCCc1c[nH]c2ccccc12,"22.4 µM [falling, single point]",–
CC(C)c1ccccc1NC(=S)NC1CCCCC1,"12.6 µM [rising, partial curve]",–
COc1ccc(NC(=O)CN2C(=O)CSc3ccc(S(=O)(=O)N(C)C)cc32)cc1OC,"3.55 µM [rising, full curve, poor fit]",–
Cc1ccc(NC(=O)C2CCN(S(=O)(=O)c3ccc4ccccc4c3)CC2)nc1,"29.1 µM [falling, single point]",–
CC1CCN(C(=O)c2cc3c(ccc4ccccc43)o2)CC1,"14.1 µM [falling, single point]",–
C=C1CCC[C@]2(C)C[C@H]3OC(=O)C(CNC(C)CC)[C@H]3CC12 (stereo not given in full),"17.8 µM [falling, partial curve, poor fit]",–
Cc1cc(C)c2c(-n3cccc3)c(NC(=O)OC(C)C)sc2n1,"11.2 µM [rising, partial curve]",–
COc1ccccc1-n1cc(-c2ccc([N+](=O)[O-])cc2)[nH]c1=S,"0.501 µM [rising, full curve, poor fit]",–
Cn1nc(C(=O)Nc2cccc(S(=O)(=O)N3CCCC3)c2)c2ccccc2c1=O,"13 µM [rising, partial curve, poor fit]",–
Cc1noc(C)c1C(=O)N1CCC(CO)(Cc2ccccc2)CC1,"6.31 µM [rising, single point]",–
CCc1cccc(NC(=O)C2CCCN2S(=O)(=O)c2cccc3cccnc23)c1 (stereo not given),"0.631 µM [rising, full curve, poor fit]","0.708 µM [falling, partial curve, poor fit]"
Cc1nc(Nc2ccccc2C(F)(F)F)sc1C(=O)N(C)C,"2 µM [rising, partial curve]",–
CC(=O)N(C)Cc1ccc(C(=O)CCl)cc1,"22.4 µM [falling, single point]",–
CN(C)C(=O)c1cc(C(=O)c2ccc(F)cc2F)c[nH]1,"11.2 µM [falling, single point]",–
FC(F)(F)c1ccc(Cl)c(NC(=S)N/N=C/c2ccccc2C(F)(F)F)c1,"8.2 µM [rising, partial curve, poor fit]",–
CC(C)(C)c1[nH]nc2c1C(Cc1ccccc1)C(C#N)=C(N)O2 (stereo not given),"29.1 µM [falling, single point]",–
CCN(CC)S(=O)(=O)c1cc(NS(=O)(=O)c2c(Cl)cccc2Cl)ccc1C,"2.91 µM [falling, full curve, poor fit]",–
O=C(c1ccco1)N1CCN=C1SCc1ccccc1Cl,"3.66 µM [falling, partial curve, poor fit]",–
Cn1c(CN2CCOCC2)nc2cc(NC(=O)c3ccc(Cl)cc3)ccc21,"20 µM [falling, partial curve, poor fit]",–
O=C(Nc1ncccc1Cl)c1ccc2c(c1)OCCO2,"35.5 µM [falling, single point]",–
COC(=O)c1c(NC(NC(=O)CC(C)C)C(Cl)(Cl)Cl)sc2c1CCC2 (stereo not given),"16.4 µM [falling, single point]",–

SMILES,AC50 [1],AC50 [2]
CCCCCCN(C(=O)CCCCCN1C(=O)NC(c2ccc(-c3ccccc3)cc2)C(C(=O)OCc2ccccc2)=C1C)C(C(=O)NCCCC)c1ccc(OCC(=O)OC)cc1 (stereo not given),"20.6 µM [rising, single point]",–
C=CC[C@H](CC(=O)N(CCO)Cc1ccccc1)C(=O)N[C@@H](COC(=O)[C@@H](CC=C)Cc1ccc(F)cc1)Cc1c[nH]c2ccccc12,"16.4 µM [falling, partial curve]",–
Cc1cc2nc(SCC(=O)Nc3ccccc3C(=O)O)[nH]c2cc1C,"22.4 µM [falling, partial curve, poor fit]",–
CN(C)c1oc(/C=C/c2ccccc2)nc1C#N,"1.84 µM [rising, partial curve, poor fit]",–
Cc1cn2c(=O)c(C(=O)N3CCN(c4ccccc4)CC3)cnc2s1,"18.4 µM [rising, partial curve, poor fit]",–
O=C(Nc1cccc(C(=O)O)c1)Nc1cccc2ccccc12,"14.1 µM [falling, single point]",–
Cc1cc(C)c(C#N)c(SCC2COc3ccccc3O2)n1 (stereo not given),"2.24 µM [rising, full curve, poor fit]",–
Cc1ccc(S(=O)(=O)N2CCCC(c3nc(-c4ccc(C)o4)no3)C2)cc1 (stereo not given),"7.31 µM [rising, partial curve, poor fit]",–
COc1ccc(/C(N)=N/OC(=O)CCC2CCCC2)cc1,"1.26 µM [rising, full curve, poor fit]",–
COc1ccc(N2C(=O)CC(Nc3cccc(C(C)=O)c3)C2=O)cc1OC (stereo not given),"29.1 µM [rising, single point]",–
O=C(O)c1ccc(/C=N/Nc2ncc(Cl)cc2Cl)cc1,"12.6 µM [falling, partial curve, poor fit]",–
O=C(COC(=O)c1ccccc1Br)Nc1cc(S(=O)(=O)N2CCOCC2)ccc1N1CCCC1,"25.1 µM [falling, single point]",–
O=c1[nH]c(-c2ccc3c(c2)OCO3)nc2c1sc(=S)n2-c1ccccc1,"12.6 µM [falling, single point]",–
Cc1cc(C)c(C(N)=O)c(Nc2cccc3ccccc23)n1,"3.26 µM [rising, partial curve, poor fit]",–
O=C(NCCCc1ccccc1)c1cc([N+](=O)[O-])ccc1Cl,"35.5 µM [falling, partial curve, poor fit]",–
Cc1ccc(-n2c(SCC(=O)Nc3cc(C)on3)nc3c([nH]c4ccccc43)c2=O)cc1,"11.6 µM [rising, partial curve, poor fit]",–
COc1cc(C(=O)OC2CSCC2NC(=O)c2ccccc2)cc(OC)c1OC (stereo not given),"11.2 µM [falling, single point]",–
Cc1cc(C)n(C(=O)CCCCCC(=O)n2nc(C)cc2C)n1,"8.2 µM [rising, partial curve, poor fit]",–
Oc1ccc(-c2csc(Nc3cccc4ccccc34)n2)cc1O,"17.8 µM [falling, partial curve]",–
CC1CCN(C(=O)CSc2nnc(NC(=O)Nc3ccccc3)s2)CC1,"35.5 µM [rising, single point]",–
CCn1c(SCC(=O)Nc2cc(C)on2)nc2c([nH]c3ccccc32)c1=O,"20 µM [falling, partial curve, poor fit]",–

# 3 of the compounds above, as tab-separated lines:
SMILES	AC50 [1]	AC50 [2]
Cc1cn2c(=O)c(C(=O)N3CCN(c4ccccc4)CC3)cnc2s1	18.4 µM [rising, partial curve, poor fit]	–
Cc1cc(C)c(C#N)c(SCC2COc3ccccc3O2)n1 (stereo not given)	2.24 µM [rising, full curve, poor fit]	–
Cc1ccc(S(=O)(=O)N2CCCC(c3nc(-c4ccc(C)o4)no3)C2)cc1 (stereo not given)	7.31 µM [rising, partial curve, poor fit]	–

# Later entries.

SMILES,AC50 [1],AC50 [2]
Cc1ccccc1C(=O)N1CCN=C1SCc1ccc([N+](=O)[O-])cc1,"35.5 µM [falling, single point]",–
Cc1ccccc1C(=O)Nc1nnc(SC(C)C)s1,"12.6 µM [falling, partial curve, poor fit]",–
O=C(COC(=O)c1cccnc1Cl)NC(=O)c1ccc(OC(F)F)cc1,"13 µM [rising, single point]",–
COc1cc(C(=O)Nc2cc(-c3ccccc3)[nH]n2)cc(OC)c1OC,"22.4 µM [falling, single point]",–
COC(=O)[C@H]1C[C@@H]1[C@H](NC(=O)c1cnccn1)c1ccccc1,"11.6 µM [rising, partial curve, poor fit]",–
CN1CCN(c2ccc(S(=O)(=O)N3CCOCC3)cc2NC(=O)COc2ccc(F)cc2Cl)CC1,"15.8 µM [falling, single point]",–
NC(=O)c1ccc(NC(=O)CN2CCN(S(=O)(=O)c3ccc4ccccc4c3)CC2)cc1,"29.1 µM [rising, single point]","23.1 µM [falling, single point]"
O=C(CSc1nc2ccccc2c(=O)n1CCCN1CCOCC1)Nc1cccc(S(=O)(=O)N2CCCCCC2)c1,"29.1 µM [falling, single point]",–
Nc1nc(N)c(N=Nc2ccc(S(N)(=O)=O)cc2)c(=O)[nH]1,"3.16 µM [falling, partial curve, poor fit]",–
CC1CCN(CC(O)CN2c3ccccc3Sc3ccccc32)CC1 (stereo not given),"7.94 µM [falling, partial curve]",–
Cc1cc(N2CCC(C)CC2)nc(-n2nc(C)cc2C)n1,"10.3 µM [rising, partial curve, poor fit]",–
CC(=O)c1ccc(N2CCCCC2)c(F)c1,"0.501 µM [rising, full curve, poor fit]",–
COc1ccc(/C=C2/SC(=S)N(CCC(=O)N3CCN(C)CC3)C2=O)cc1,"2.24 µM [falling, full curve, poor fit]",–
O=C(O)CC(NC(=O)C1c2ccccc2Oc2ccccc21)c1ccc(Cl)cc1 (stereo not given),"20.6 µM [falling, single point]",–
COC(=O)c1cc(NC(=O)CC2NC3CCCCC3NC2=O)cc(C(=O)OC)c1 (stereo not given),"7.08 µM [falling, partial curve]",–
O=C(CNC(=O)c1ccc(Br)cc1)c1ccccc1,"12.6 µM [falling, single point]",–
Clc1ccc(/C=C/c2nc3ccccc3[nH]2)c(Cl)c1,"35.5 µM [falling, single point]",–
COc1ccc(C(=O)NCCOc2cccc(Oc3ccccc3)c2)cc1OC,"29.1 µM [falling, single point]",–
Cc1cc(OCC(=O)O)c2ccccc2n1,"31.6 µM [rising, single point]",–
COCCCNc1nc2nonc2nc1N1CCN2CCCC2C1 (stereo not given),"35.5 µM [falling, single point]",–
O=C(CNc1ccccc1Cl)Nc1cc(S(=O)(=O)N2CCOCC2)ccc1Cl,"29.1 µM [falling, single point]",–

# A few values from the results shown.
# Under AC50 [1], `Cc1ccccc1C(=O)Nc1nnc(SC(C)C)s1` has the entry 12.6 µM [falling, partial curve, poor fit]
# Under AC50 [1], `Cc1cc(N2CCC(C)CC2)nc(-n2nc(C)cc2C)n1` has the entry 10.3 µM [rising, partial curve, poor fit]
